Most values lie at the floor of the assay. Slopes are relative: functional sequences can read slightly below zero.

The test system of this series is Saccharomyces cerevisiae PS128 hsf1 delta, HSF1(1-493) fusion. Description: growth estimate (transactivation domain function in HSF1 fusion, heat-shock survival) (a.u. (slope of normalised read count over time)); higher = stronger growth at 37°C, i.e. more transactivation activity. The settings on record: library: random library.
Turning to AVLILPYPGNSMHRLMPSFS, the growth estimate was less than -0.25.

As to CATSAGGRSRSIQKIVGQGL, the growth estimate is less than -0.25.

On to VGVVKT, for which the growth estimate was less than -0.25.

In the case of VVGNIQLYV, the growth estimate is less than -0.25.

Take LNG: the growth estimate is less than -0.25. The same measure for IERLRGTRGDPKHWNLKYLI: less than -0.25. The result for LMRFSKLLHSSC reads less than -0.25. The result for NRRWQAIYHVFTGAGRLLRV reads less than -0.25; that for CSGLSKSHSTEEGFHSQAPP, less than -0.25. As to MLRDLFGMNAGSVWDRLQMA, the growth estimate is 0.394. The result for LVLVLRKGGGLSEP reads less than -0.25; that for APELRYAVSGQGERGVLAC, less than -0.25; that for IFC, -0.183. The same measure for GDVL: less than -0.25; for QRVVVRTRIAVQAARLTRNS: less than -0.25; for FRSWIYRQRLKSEYCLSLIC: less than -0.25. The same measure for SVAG: less than -0.25; for TKTTVRRG: less than -0.25. In the case of GQAIVRASAFR, the growth estimate is less than -0.25. The result for AKVSMSVEGCSACETAGLSC reads less than -0.25; that for TRTTLCTDVQSANIICPDGR, less than -0.25; that for VDASRPGTVWESG, less than -0.25. Regarding WPPERSWG, the growth estimate is -0.203. The result for RARLRERRSIGTLLIRSLLS reads less than -0.25; that for GCGGGCRI, less than -0.25.

As for RTAKVEVTRTR, the growth estimate was less than -0.25. As to RATEVRASPLENLATGSDQG, the growth estimate is less than -0.25. Turning to SGLFYTWM, the growth estimate was -0.0009. Regarding NLQITWSVALLDSLRGSVPA, the growth estimate is less than -0.25.

Consider IRMASP, for which the growth estimate is less than -0.25.

Regarding SGRVEYLGLVGVRRRRVTTQ, the growth estimate is less than -0.25. As for LFKITESFVYGLCIPCYLTQ, the growth estimate was less than -0.25. The result for EFRWVRGGRAKI reads less than -0.25; that for GLWCDSTAAYGLEWKVSQSG, less than -0.25; that for GCLVLNLRVGRRKVRIFYRP, less than -0.25. The same measure for LTVYDLGDACSELYRLNARG: less than -0.25. The result for LRKGMWVGQTKVSTAGDRPI reads less than -0.25. On to SGCSQCPNPGCYKTLGRICI, for which the growth estimate is less than -0.25. The result for VSERRSVQEKHR reads less than -0.25; that for TCSALTHITEFGKC, less than -0.25; that for SRSPYTAMFSVRSF, less than -0.25. As to HFDPFVPPNSGYPDGP, the growth estimate was less than -0.25.

Consider PNGYRHKA, for which the growth estimate was -0.127. The result for VRRTRDGNVAALKTFALREI reads less than -0.25; that for SPCGRWAVRGPSESRNIKWT, less than -0.25; that for GNLQLNDGSYQRVLKQ, less than -0.25. NSRPDVRSGRAPVTK: the growth estimate is less than -0.25. The result for VCQGVVVAQKQDRFATLSKP reads less than -0.25; that for YLGKGSR, less than -0.25; that for GQWLCLLAWGGPDRSPGNWL, less than -0.25. The result for LWLLVHYRFRF reads less than -0.25; that for QEFFCALRLNVVRSREVSVR, less than -0.25; that for EKE, less than -0.25. The same measure for LSKARTLRRTRDLRCVAGLR: less than -0.25. In the case of LNVLREGTPQKRHFLRFRPI, the growth estimate was less than -0.25. The same measure for RLQPRYHPSLNRNPV: less than -0.25. In the case of TMQARKRAPRLRLPGRFR, the growth estimate is less than -0.25. The result for LVNGASDNILGQLHIEVRRL reads less than -0.25; that for ASAACD, less than -0.25; that for RCWAGSVRIGLAREDGSVNG, less than -0.25. The result for NGKPHPKHSWWRH reads less than -0.25; that for VYFAGSRFAVFTDASPRLIT, less than -0.25. The same measure for WWSLLFSDL: less than -0.25. As to RMKGLQSGIRESGTP, the growth estimate was less than -0.25. RAGSYSIGTTPPQLDSVASR: the growth estimate is less than -0.25. The same measure for NGSKRGKA: less than -0.25; for TQTPGAYS: less than -0.25; for GCLLDA: less than -0.25. The same measure for LRIIFGSVLKSRGAA: less than -0.25. On to VISLQRVDAVLDYQKL, for which the growth estimate is less than -0.25. GIHNTLSSQGS: the growth estimate is -0.248. Consider LRTFESPPTRATLPRGLLAS, for which the growth estimate was less than -0.25.

STRESHRDIYRAVKSCLVSE: the growth estimate was less than -0.25. For ILIASAVKFIRGLTYFATRR, the growth estimate is less than -0.25.

On to PVIMPRLRNPPLFSARLI, for which the growth estimate is less than -0.25. The same measure for PRKTGSTNHKREMSGRATSR: less than -0.25. Turning to PNSRSLCSSQAACSPIPGSI, the growth estimate is less than -0.25. For GWLSVGIFGGRPLRSYPLKA, the growth estimate is less than -0.25.

Source of the values: the supplement of paper PMC5949888.
